Test results published in PubChem BioAssay AID493014 (National Center for Advancing Translational Sciences (NCATS), 2011).
Hit rate of the full screen: of about 340,000 compounds, about 170 (0.05%) were called active. Inconclusive results, whose numbers are uncertain, are shown with a selection of clear calls. Calls come from the whole dose curve; as a rule, active = well fitted inhibition curve with a large enough effect in the signal ratio, with a control signal flat (not every such curve was filed as active); inconclusive = small, poorly fitted or top-dose-only effect, or effect the other way, or a change in a side signal; inactive = flat fitted curve, though single readings scatter; the % refers to the signal ratio. A potency beside an inconclusive call is a rough fit, not a confirmed value.
Potency is the fitted concentration of half-maximal effect.

Test: qHTS Assay to Find Inhibitors of Chronic Active B-Cell Receptor Signaling;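 for activity change, negative = inhibition: plate controls were basal doxycycline-induced cells for no effect and cells given 10 µM MG132 for full effect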
Settings: ABC-DLBCL IkBa-CBG/CBR reporter, luminescence ratio (green luciferase fused to IkBa over red control in TMD8 lymphoma cells), 4 h; activity change, negative = inhibition: at 46.1 µM (top of the series) unless noted
In short: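 Compounds up to 46 uM were incubated four hours with TMD8 cells whose green CBG68 luciferase is fused to IkappaBalpha; red CBR luminescence normalised the signal, and concentration-effect curves were fitted to fusion, red and ratio data.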
For `CS(=O)(=O)c1cccc(C(=O)Nc2ccc3c(c2)OCCCO3)c1`, the activity change, negative = inhibition was inconclusive: -11.9%. For `COc1ccc(Br)cc1/C=N/NC(=O)c1cc(Br)ccc1O`, the Potency was inconclusive: 3.16 µM [falling, partial curve]. In the case of `Cc1ccc(NC(=O)CN2C(=O)NC3(CCCc4ccccc43)C2=O)cc1S(=O)(=O)N1CCOCC1` (stereo not given), the activity change, negative = inhibition is reported as inconclusive: 0.319%. With `COc1ccccc1-c1cn(S(=O)(=O)c2ccc(F)cc2)nc1N` the activity change, negative = inhibition was inconclusive: -7.93%. With `COc1ccc(/C=C2\SC(=S)N(CCCC(=O)Nc3ccc(C(=O)O)cc3)C2=O)cc1OC` the Potency was inconclusive: 10 µM [falling, partial curve]. In the case of `CC(C)(C)CN1CCNC(=O)C1CC(=O)NCCc1cnn(-c2ccccc2)c1` (stereo not given), the Potency is reported as inconclusive: 20 µM [rising, single point]. In the case of `COCCCn1cnc2oc3nc4ccccc4nc3c2c1=O`, the activity change, negative = inhibition is reported as “inactive”. With `CN(C)c1ccc(NC(=O)Oc2ccccc2)cc1` the Potency was inconclusive: 29.1 µM [falling, partial curve]. With `Nc1nc(-c2ccc([N+](=O)[O-])cc2)c(C(=O)Nc2ccc(Cl)cc2)s1` the Potency was inconclusive: 0.447 µM [falling, full curve, poor fit]. With `COCCCNC(=O)c1cc2c(-c3cccc(OC)c3)nn(C)c2s1` the activity change, negative = inhibition was inconclusive: 0.0015%. With `CCOc1ncccc1C(=O)Nc1ccc(C)cn1` the activity change, negative = inhibition was inconclusive: 6.28%. In the case of `CCOC(=O)c1c(C)[nH]c(C(=O)COC(=O)/C=C/c2cccc(OC)c2OC)c1C`, the activity change, negative = inhibition is reported as inconclusive: -1.86%. For `CC(C)[C@@H](C(=O)NC1CCN(Cc2ccccc2)CC1)N1C(=O)N2CCc3c([nH]c4ccccc34)[C@@]2(C)C1=O`, the Potency was inconclusive: 28.2 µM [falling, single point]. In the case of `CCCCc1ccc(NC(=O)C(C)CC)cc1` (stereo not given), the Potency is reported as inconclusive: 22.4 µM [falling, single point]. In the case of `Oc1ccccc1-c1cc(-c2ccco2)[nH]n1`, the Potency is reported as inconclusive: 23.1 µM [falling, single point]. For `Cc1ccc(C(=O)NC(C)CCc2ccccc2)cc1[N+](=O)[O-]` (stereo not given), the activity change, negative = inhibition was inconclusive: 18.8%. With `COC(=O)CSc1nnc(COc2ccc3ccccc3c2)o1` the Potency was inconclusive: 17.8 µM [falling, single point]. In the case of `CC(=O)Nc1ccc(C(=O)N(C)C(C(=O)Nc2ccccc2)c2ccccn2)cc1` (stereo not given), the activity change, negative = inhibition is reported as inconclusive: 4.23%. In the case of `COc1cccc(C(=O)Nc2nc3ccccc3s2)c1`, the Potency is reported as inconclusive: 11.2 µM [falling, partial curve]. For `CCOc1ccc(C(=O)O/N=C(\N)c2ccccn2)cc1OCC`, the Potency was inconclusive: 35.5 µM [rising, single point]. In the case of `Cc1ccc(C(=O)c2oc3ccccc3c2NC(=O)c2cc(-c3cc(C)ccc3O)n[nH]2)cc1`, the activity change, negative = inhibition is reported as inconclusive: -6.83%. In the case of `Cn1cc(CNC(=O)C2c3ccccc3Oc3ccccc32)cn1`, the activity change, negative = inhibition is reported as inconclusive: -0.861%. In the case of `Cc1oc(/C=N/NC(=O)CN(c2ccccc2Br)S(C)(=O)=O)cc1Br`, the activity change, negative = inhibition is reported as inconclusive: 11.7%. In the case of `C/C(=N\Nc1ncc(Cl)cc1Cl)c1cccs1`, the Potency is reported as inconclusive: 35.5 µM [cytotoxic, single point]. In the case of `COc1ccccc1CNC(=O)C(=O)NCC(c1ccco1)S(=O)(=O)c1ccc(C)cc1` (stereo not given), the activity change, negative = inhibition is reported as “inactive”. With `CC(=O)Nc1ccc(-c2csc(NC(C)c3ccccc3)n2)cc1` (stereo not given) the activity change, negative = inhibition was “inactive”. With `CCOC(=O)/C=c1\s/c(=C(\C#N)C(=O)NC)n(-c2ccccc2)c1=O` the activity change, negative = inhibition was inconclusive: 3.19%. For `COC(=O)Cc1csc(Nc2ccc(F)c(Cl)c2)n1`, the activity change, negative = inhibition was inconclusive: -4.65%. For `COc1cc2c(cc1OC)[C@@H](NC(=O)Cc1ccc(F)cc1)[C@H](OCc1ccccc1)C2`, the activity change, negative = inhibition was inconclusive: -0.148%. With `C=CCn1c(SCc2cc(C(=O)OC)c(C)o2)nnc1-c1ccncc1` the activity change, negative = inhibition was inconclusive: 1.34%. With `Cc1nc(C(=O)NC(C)C)nn1-c1cc(Cl)cc(Cl)c1` the activity change, negative = inhibition was inconclusive: 0.571%. With `CC(=O)Nc1ccc(S(=O)(=O)Nc2ccc3c(c2)OCCO3)cc1` the activity change, negative = inhibition was “inactive”. With `COc1ccc(NC2=C(Cl)C(=O)N(c3ccccc3)C2=O)c(OC)c1` the activity change, negative = inhibition was inconclusive: -14.7%. In the case of `C=CCNC(=O)c1onc(CSc2cccc(OC)c2)c1C(=O)O`, the Potency is reported as inconclusive: 17.8 µM [falling, partial curve]. In the case of `CCc1ccc(NC(=O)c2cc(-c3ccc(OC)cc3)on2)cc1`, the Potency is reported as inconclusive: 29.1 µM [falling, single point]. In the case of `Cc1ccc(NC(=O)Cc2nn(C)c(=O)c3ccccc23)cc1F`, the activity change, negative = inhibition is reported as “inactive”. In the case of `C=CCN1C=C2C(=O)C(C)(OC(=O)CCc3ccccc3)C(=O)C=C2C=C1c1ccc(C#N)cc1` (stereo not given), the activity change, negative = inhibition is reported as inconclusive: 16.4%. For `Clc1ccc(-n2ncc3c(N4CCCC4)ncnc32)cc1`, the activity change, negative = inhibition was inconclusive: 4.88%. For `Cc1cc(O)c(C(C)C)cc1NC(=O)c1ccccc1Cl`, the activity change, negative = inhibition was inconclusive: -1.03%. For `COC(=O)C1=C(C)N(c2ccc(OC)c(OC)c2)C(=O)C1`, the activity change, negative = inhibition was inconclusive: -0.223%. For `Cc1c(NC(=O)c2c(NC(=O)CNC3CC3)sc3c2CCCC3)c(=O)n(-c2ccccc2)n1C`, the activity change, negative = inhibition was inconclusive: -0.423%. With `Clc1ccccc1OCCn1cnc2ccccc21` the activity change, negative = inhibition was inconclusive: -6.13%. For `CCC(=O)NCCn1c(C)cc2ccccc21`, the activity change, negative = inhibition was inconclusive: 10.6%. With `O=C(N1CCN(c2ccccn2)CC1)N1c2ccccc2Sc2ccccc21` the activity change, negative = inhibition was inconclusive: 3.97%. In the case of `Cc1nc(Nc2cccc(F)c2)c2oc3ccccc3c2n1`, the activity change, negative = inhibition is reported as inconclusive: 10.6%. For `COc1ccc([C@]23Cc4cc(OC)c(OC)cc4C(O2)c2c(cc(C)n(Cc4ccccc4)c2=O)O3)cc1`, the activity change, negative = inhibition was inconclusive: 28.4% [at 9.22 µM]. For `Cc1ccc(C(=O)Nc2ccc3ccccc3c2)cc1`, the Potency was inconclusive: 25.1 µM [falling, single point]. With `O=C(CCc1nc2ccccc2s1)OCC(=O)c1ccccc1` the Potency was inconclusive: 5.8 µM [rising, full curve, poor fit]. In the case of `Cc1ccc(C)c(N2CCN(C(=O)CCn3c(=S)[nH]c4cc5c(cc4c3=O)OCO5)CC2)c1`, the activity change, negative = inhibition is reported as “inactive”. With `COc1cccc(/C=N/Nc2snc(SC)c2C#N)c1O` the Potency was inconclusive: 18.4 µM [falling, partial curve, poor fit].
